Screening data

Source: PubChem BioAssay AID687032 (Broad Institute, 2013).

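Cell survival of the PAX8-independent IOSE-T80 line, measured by CellTiterGlo ATP luminescence after four days of exposure. Percent change in signal scaled so neutral controls are 0 and the cytotoxic control is -100; more negative values mean greater loss of viability. Per repeat run, active means fitted AC50 at or below twice the top valid dose; inactive means a flat curve between -30% and 30%, an opposite effect, or AC50 above that limit; inconclusive means a flat -30% to -70% curve, a poor fit, or runs that disagree.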

Values are in %. All entries here are filed as inconclusive. Only part of the assay is shown, chiefly results filed as inconclusive.

| compound | tested on / at | activity change (%) |
|---|---|---|
| `CC(C)(C)c1nnc(NC(=O)CCS(=O)(=O)c2ccccc2)s1` | at 35 µM (top of the series) | 11.82 |
| `Cn1ccnc1SCc1nc2c(cnn2-c2ccccc2)c(=O)[nH]1` | at 35 µM (top of the series) | 7.91 |
| `CS(=O)(=O)c1ccc(C(=O)OCC(=O)NCc2cccs2)cc1[N+](=O)[O-]` | at 35 µM (top of the series) | -10.38 |
| `COc1ccc(OCc2cccc(C(=O)Nc3cc(C)on3)c2)cc1` | at 35 µM (top of the series) | 8.406 |
| `COc1ccc(OC)c(-c2nnc3n2N=C(c2ccc(OC)c(OC4CCCC4)c2)CS3)c1` | at 35 µM (top of the series) | 5.359 |
| `CN=c1scc(-c2ccccc2F)n1/N=C/c1ccc[nH]1` | at 35 µM (top of the series) | 5.838 |
| `COc1cccc2c1C(=O)c1c(O)c3c(c(O)c1C2=O)C[C@@](O)(C(=O)CO)C[C@@H]3O[C@H]1C[C@H](N)[C@H](O)[C@H](C)O1` | at 35 µM (top of the series) | 4.948 |
| `COc1ccc(-c2csc(NC(=O)c3ccccc3NS(=O)(=O)c3ccc(F)c(F)c3)n2)cc1` | at 35 µM (top of the series) | 5.448 |
| `Cc1ccc(C(=O)Nc2cnc3ccccc3c2)cc1` | at 35 µM (top of the series) | 14.58 |
| `O=C(NCCc1ccccc1F)c1ccc2c(c1)OCCO2` | at 35 µM (top of the series) | 9.942 |
| `Oc1ccc(Cc2ccccc2)c2cccnc12` | at 35 µM (top of the series) | 3.892 |
| `CC(C)(C)OC(=O)NCCCC[C@H](NC(=O)c1[nH]cnc1C(=O)Nc1ccc(CNC(=O)OC(C)(C)C)cc1)C(=O)OC(C)(C)C` | at 35 µM (top of the series) | 1.358 |
| `O=C(Cn1ncc(Cl)c(Cl)c1=O)NC(=O)NC1CCCCC1` | at 35 µM (top of the series) | 7.453 |
| `C(=NNc1ccc2ccccc2n1)c1ccccn1` | at 35 µM (top of the series) | 10.5 |
| `CCOc1ccc(C(=O)O/N=C(\N)c2ccccn2)cc1` | at 35 µM (top of the series) | 4.303 |
| `COc1ccc(OC)c(N(CCN2C(=O)c3ccccc3C2=O)C(=O)CCl)c1` | at 35 µM (top of the series) | 23.94 |
| `Cc1noc(C)c1S(=O)(=O)N(C)C[C@H]1OCCCC[C@@H](C)Oc2ccc(NS(=O)(=O)c3ccc(Cl)cc3)cc2C(=O)N([C@@H](C)CO)C[C@@H]1C` | at 35 µM (top of the series) | -4.351 |
| `Cc1cc(C(C)(C)C)cc(C)c1Cn1c2[n+](c3ccc(C(F)(F)F)cc31)CCCCC2` | at 35 µM (top of the series) | 15.12 |
| `COc1cc(CNc2ncnc3c2ncn3[C@H]2CN(Cc3ccc(-c4ccccc4)cc3)C[C@@H](CO)O2)cc(OC)c1OC` | at 35 µM (top of the series) | 19.07 |
| `COc1ccc(NC(=O)Nc2ccc3c(c2)CC(=O)N([C@H](C)CO)C[C@@H](C)[C@@H](CN(C)Cc2ccc(Oc4ccccc4)cc2)O3)cc1` | at 35 µM (top of the series) | 30.32 |
| `C[C@H](O)C#Cc1ccc2c(c1)O[C@@H](CN(C)Cc1ccc(-c3ccccc3)cc1)[C@H](C)CN([C@@H](C)CO)S2(=O)=O` | at 35 µM (top of the series) | 1.913 |
| `CCOc1ccc(C(=O)C(CCC(CN(C)C)C(=O)c2ccc(OCC)cc2)CN(C)C)cc1` (stereo unspecified) | at 35 µM (top of the series) | 12.04 |
| `Cn1nnnc1Sc1ncnc2scc(-c3ccc([N+](=O)[O-])cc3)c12` | at 35 µM (top of the series) | -5.317 |
| `Cc1ccc(S(=O)(=O)N2CCCCC2)cc1NC(=O)Cn1ncc(Cl)c(Cl)c1=O` | at 35 µM (top of the series) | 2.287 |
| `Nc1nc(Sc2ccc([N+](=O)[O-])c3nonc23)c2[nH]cnc2n1` | at 35 µM (top of the series) | 12.64 |
| `C=C1C(=O)[C@]23C[C@H]1CCC2[C@@]1(C)C(C[C@@H]3O)[C@](C)(C(=O)OC)CC[C@@H]1O` (stereo partly specified) | at 35 µM (top of the series) | 11.82 |
| `CCCCCC(=O)N/N=C(\C)c1ccc(N2CCCCC2)cc1` | at 35 µM (top of the series) | 2.236 |
| `CC(C)c1cc(C(=O)OCC(=O)N2CCN(C(=O)c3ccco3)CC2)c(O)c(C(C)C)c1` | at 35 µM (top of the series) | 15.26 |
| `COc1ccccc1NC(=O)c1nc(S(=O)(=O)Cc2ccccc2)ncc1Cl` | at 35 µM (top of the series) | 4.342 |
| `Cn1c(CCN2CCCC2)nc2cc(NS(=O)(=O)c3ccc(Cl)cc3)ccc21` | at 35 µM (top of the series) | 1.222 |
| `COc1cccc(-c2nc(CS(=O)(=O)CC(=O)NCCCN3CC(C)CC(C)C3)c(C)o2)c1` (stereo unspecified) | at 35 µM (top of the series) | 6.618 |
| `C=C1C(=O)C23C(O)C1CCC2C12CCCC(C)(COC(C)=O)C1C(O)C3(O)OC2` (stereo unspecified) | at 35 µM (top of the series) | 3.613 |
| `CNC[C@@H]1Oc2ccc(NC(=O)NC(C)C)cc2CC(=O)N([C@@H](C)CO)C[C@@H]1C` | at 35 µM (top of the series) | -49.42 |
| `Cc1cc(Br)c(OCc2ccc(C(=O)N/N=C/c3ccc[nH]3)cc2)c(Br)c1` | at 35 µM (top of the series) | 6.626 |
| `NC(N)=NN=C(c1ccc(F)cc1)c1ccc(C(F)(F)F)cc1` | at 35 µM (top of the series) | 2.641 |
| `Brc1ccc(-n2cc(-c3ccccc3)c3c(NN4CCOCC4)ncnc32)cc1` | at 35 µM (top of the series) | 10.89 |
| `COc1ccc(N2C(=O)CC(Sc3nnc(-c4ccccc4)o3)C2=O)cc1` (stereo unspecified) | at 35 µM (top of the series) | 15.68 |
| `C#CCN(C[C@@H]1[C@@H](OC(=O)NC2CCCC2)[C@@H](OC(=O)NC2CCCC2)Cn2c(=O)ccc(=O)n21)S(=O)(=O)c1ccc(C)cc1` | at 35 µM (top of the series) | 13 |
| `Cc1ccc(S(=O)(=O)Nc2ccc3c(c2)nc(CCN2CCCC2)n3C)cc1` | at 35 µM (top of the series) | 3.891 |
| `O=C(NCCc1ccccc1)C(c1cccs1)N(C(=O)CCl)c1ccc(Cl)cc1` (stereo unspecified) | at 35 µM (top of the series) | 7.771 |
| `O=C(/C=C/c1cccs1)NC(=S)NNC(=O)c1ccccc1O` | at 35 µM (top of the series) | 12.5 |
| `N#Cc1ccc(-c2ccc([C@@H]3[C@@H]4CN(S(=O)(=O)c5ccc(-c6ccccc6)cc5)C[C@H]3N4)cc2)cc1` | at 35 µM (top of the series) | 5.21 |
| `CCS(=O)(=O)c1ccc(N=Nc2ccc(O)c3ncccc23)c(OC)c1` | at 35 µM (top of the series) | 8.429 |
| `Nc1nc(=S)c2ncn([C@@H]3O[C@H](CO)[C@@H](O)[C@H]3O)c2[nH]1` | at 35 µM (top of the series) | 9.401 |
| `Cc1nc(-c2ccc(NC(=O)c3ccco3)cc2)cs1` | at 35 µM (top of the series) | -96.93 |
| `Nc1nc(N)c2c(ccc3c2ccn3Cc2cccc([N+](=O)[O-])c2)n1` | at 35 µM (top of the series) | 8.702 |
| `Cc1cc(-c2n[nH]c(=S)n2/N=C/C(Br)=C/c2ccccc2)n[nH]1` | at 35 µM (top of the series) | 6.752 |
| `CCCNC(=O)COC(=O)/C=C/c1ccco1` | at 35 µM (top of the series) | 10.09 |
| `CCN(CC(=O)Nc1c(F)cccc1F)C(=O)c1cc(S(=O)(=O)N(C)C)ccc1N1CCCC1` | at 35 µM (top of the series) | 6.435 |
| `COc1cc2nc(C3CCC3)nc(N3CCN(c4ccccc4OC)CC3)c2cc1OC` | at 35 µM (top of the series) | 7.004 |
| `C=C1C(=O)C2=CC1CCC(=O)C1(C)CCC(OC(C)=O)C(C)(C)C1CC2O` (stereo unspecified) | at 35 µM (top of the series) | 11.28 |
| `Cc1ccc2cccc(NS(=O)(=O)c3ccccc3)c2n1` | at 35 µM (top of the series) | 5.88 |
| `CC[C@@H]1CCC[C@@H](O)[C@@H](C)C(=O)O[C@H](C)[C@@H](C)C/C=C(C)/C(OC)=C\C(=O)N(C)C([C@@H](C)CC)C(=O)N(C)[C@@H](C(C)C)C(=O)N(C)[C@@H](COC)C(=O)N2CCC[C@H]2C(=O)N(C)[C@@H](C(C)C)C(=O)N2CCC[C@H]2C(=O)O1` (stereo partly specified) | at 35 µM (top of the series) | 8.968 |

For reference, 7 entries once more:

* N#Cc1ccc(-c2ccc([C@@H]3[C@@H]4CN(S(=O)(=O)c5ccc(-c6ccccc6)cc5)C[C@H]3N4)cc2)cc1 [at 35 µM (top of the series)] : activity change 5.21%
* CC(C)(C)c1nnc(NC(=O)CCS(=O)(=O)c2ccccc2)s1 [at 35 µM (top of the series)] : activity change 11.82%
* C=C1C(=O)C2=CC1CCC(=O)C1(C)CCC(OC(C)=O)C(C)(C)C1CC2O (stereo unspecified) [at 35 µM (top of the series)] : activity change 11.28%
* CC(C)(C)OC(=O)NCCCC[C@H](NC(=O)c1[nH]cnc1C(=O)Nc1ccc(CNC(=O)OC(C)(C)C)cc1)C(=O)OC(C)(C)C [at 35 µM (top of the series)] : activity change 1.358%
* Cc1ccc(S(=O)(=O)Nc2ccc3c(c2)nc(CCN2CCCC2)n3C)cc1 [at 35 µM (top of the series)] : activity change 3.891%
* COc1ccc(OCc2cccc(C(=O)Nc3cc(C)on3)c2)cc1 [at 35 µM (top of the series)] : activity change 8.406%
* C=C1C(=O)[C@]23C[C@H]1CCC2[C@@]1(C)C(C[C@@H]3O)[C@](C)(C(=O)OC)CC[C@@H]1O (stereo partly specified) [at 35 µM (top of the series)] : activity change 11.82%